Laboratory results from the supplement of paper PMC5407854, “Inhibitor of ppGalNAc-T3-mediated O-glycosylation blocks cancer cell invasiveness and lowers FGF23 levels” (eLife, 2017).
The full ranking holds about 1,700 compounds; the median of “T2 sensor activation Q score (MG/GFP ratio z-score vs DMSO controls)” is about 0.3, and the highest 2% start at about 1.9. The list shows a part of the results.

tested on: ppGalNAc-T2 sensor; assay: T2 sensor activation Q score (MG/GFP ratio z-score vs DMSO controls) (SD units); higher = more sensor activation (inhibition of ppGalNAc-T2 glycosylation); conditions: HEK293 sensor cells; 10 µM; 6 h
Experimental: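 Cells were treated with compound at 10 uM for 6 h, then MG/GFP ratio was read by flow cytometry (10,000 cells per well, duplicate wells). Q = (R - R_neg)/SD_neg relative to DMSO vehicle controls; the signal rises when the glycosyltransferase is inhibited.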

Row | SMILES | T2 sensor activation Q score
1 | CC1=NC(C)(C)CC2CCC(O)C12 (stereo not given) | -0.5
2 | CCC(C)n1c(C)cc(=O)n1C(C)CC (stereo not given) | -0.1
3 | O=c1nc(Oc2ccccc2)nc2ncccn12 | 1.9
4 | c1ccn(CCc2ccncc2)c1 | 1.4
5 | CCSc1nc(C)c(C)c(=O)[nH]1 | -0.5
6 | CN(C)c1ccc(/C=C/C(=O)c2cc(Cl)ccc2O)cc1 | -0.3
7 | NC1(N2SC(S)=C3CCCC=C32)CCCCC1 | -1.7
8 | Cc1cccn2c(=S)[nH]nc12 | -1.35
9 | COc1ccc(CC(=O)c2ccc(O)cc2O)cc1 | 0.35
10 | O=C(O)c1ccc2c(c1Sc1ccccc1)C(=O)c1ccccc1C2=O | 0.2
11 | CCOC(=O)c1nc2sc3c(c2c(=O)[nH]1)CCCC3 | 0.3
12 | CCOC(=O)CCCN(c1[nH]c(C)c(C)c1C#N)S(=O)(=O)c1ccc(C)cc1 | 1.05
13 | OC(COc1ccc(Cl)cc1)CN1CCN(c2cccc(Cl)c2)CC1 (stereo not given) | 1.05
14 | CCCCOc1ccc(OC(=O)Nc2cc(Cl)ccc2OC)cc1 | -0.4
15 | Oc1ccc(Cc2ccc(Cl)cc2)c(O)c1 | 1.3
16 | CCOC(=O)/C(=N\O)C1=CSC2=NNC(C)(C)N12 | -1.5
17 | O=c1[nH]c2nc(Cl)nc(Cl)c2[nH]1 | 1
18 | C(=C\CSc1ccccn1)/CSc1ccccn1 | -0.6
19 | Cc1cc(NC(=O)OC(C)C)ccc1-c1ccc(NC(=O)OC(C)C)cc1C | -0.25
20 | CN(C(=O)c1ccncc1)c1ccccc1 | -1
21 | O=C(Nc1ccc(Cl)c([N+](=O)[O-])c1)Nc1nc2ccccc2s1 | -1.2
22 | S=P(N1CC1)(N1CC1)N1CC1 | -1.35
23 | CC(C)c1ccc(-c2nc3ccccc3s2)cc1 | -1.15
24 | CN(C)c1nc(Cl)nc2c1nc(Cl)n2C1CCCCO1 (stereo not given) | 1.4
25 | O=C(O)CSc1nc2ccccc2s1 | 0.3
26 | Nn1c(Cc2ccccc2)nnc1Cc1ccccc1 | 0.2
27 | CCOC(=O)c1cc(OCC)c2c(ccc3ccccc32)n1 | 0.85

Individual results from above:
In T2 sensor activation Q score, CCC(C)n1c(C)cc(=O)n1C(C)CC (stereo not given) has -0.1
In T2 sensor activation Q score, O=c1nc(Oc2ccccc2)nc2ncccn12 has 1.9
In T2 sensor activation Q score, C(=C\CSc1ccccn1)/CSc1ccccn1 has -0.6

(continued)

Row | SMILES | T2 sensor activation Q score
28 | O=Nc1c(-c2cccc([N+](=O)[O-])c2)nc2ncccn12 | 1.6
29 | Cc1ccc([N+](=O)[O-])cc1NC(=O)Nc1cccc(F)c1 | -0.7
30 | O=C(c1ccc(OCCN2CCCCC2)cc1)c1c(-c2ccc(O)cc2)sc2cc(O)ccc12 | -1.5
31 | NC(CSC1(c2cccc3ccccc23)c2ccccc2-c2ccccc21)C(=O)O (stereo not given) | 0.15
32 | CNC(=O)c1ccccc1Sc1ccc2c(/C=C/c3ccccn3)n[nH]c2c1 | -0.65
33 | CS/C(=N\S(=O)(=O)c1ccccc1)NNC(=O)c1c(-c2c(Cl)cccc2Cl)noc1C | 1.1
34 | S=c1[nH]cc2cnccn12 | -0.95
35 | CSc1nc2cc(S(=O)(=O)N3CCCCC3)ccc2s1 | -0.1
36 | ClCC(CNCc1ccccc1)c1ccccc1 (stereo not given) | 1.6
37 | O=C(O)c1ccccc1-n1c2ccccc2c2ccccc21 | 1.1
38 | Cn1nc(SCc2ccccc2)c(=O)n(C(c2ccccc2)c2ccccc2)c1=O | -0.75
39 | NC(=O)c1cc(C(N)=O)nc(Cl)n1 | 0
40 | O=C(c1ccccc1)C1C(c2ccccc2)C1[N+](=O)[O-] (stereo not given) | 1.05
41 | Cc1ccc(N2CCN(CC(O)COc3cccc(C)c3)CC2)cc1 (stereo not given) | -0.85
42 | NS(=O)(=O)c1cc2c(cc1Cl)NC(Cc1ccccc1)NS2(=O)=O (stereo not given) | 0.15
43 | CNC1(C(N)=O)CCNCC1 | -0.65
44 | O=[N+]([O-])c1cc2cccnc2c2ncccc12 | 0.4
45 | O=C1CSC(c2cccs2)N1c1nncs1 (stereo not given) | 1.1
46 | S=c1nc[nH]c2nc[nH]c12 | -0.4
47 | CCCn1cnc2c(Sc3c([N+](=O)[O-])ncn3C)nc(N)nc21 | -0.2
48 | CN(/N=N/c1nc[nH]c1C(=O)NN)C1CCCCC1 | 1.7
49 | CCOC(=O)c1cc(-c2ccccc2)nc2ccc(C)cc12 | 0.9
50 | CCOc1nsc(OCC)n1 | -0.8
51 | CC(=O)Oc1ccc(OC(C)=O)c2c1CC(C)=C(C)C2 | 0.85
52 | COc1cccc(OCC(O)CN2CCN(c3ccc(Cl)cc3)CC2)c1 (stereo not given) | 0.1
53 | S=C(SCc1cc(Cl)cc2c1OCOC2)N1CCSCC1 | -0.05
54 | C=CCN1CCN(c2ccncc2S(=O)(=O)N2CCN(C)CC2)CC1 | 0.15

Row | SMILES | T2 sensor activation Q score
55 | CCOC(=O)C(C)c1c(C(=O)c2ccc(C)nc2)c2ccccc2n1C (stereo not given) | 0.9
56 | O=c1cc(-c2ccccc2)oc2ccc(O)cc12 | -0.15
57 | O=C1CCCc2cc3c(cc21)CC1(C3)Cc2cc3c(cc2C1)C(=O)CCC3 | -1
58 | S=c1[nH]c2ccc(Cl)cc2s1 | 0.3
59 | OC(COc1cccc2ccccc12)CN1CCN(c2ccccc2Cl)CC1 (stereo not given) | -0.1
60 | O=c1[nH]c2c(cnn2-c2ccc(Cl)cc2)c(=O)n1-c1cccc(Cl)c1 | 1.25
61 | CCN(CC)CCN=c1c(C)nc(C#N)c(N)n1O | 0.9
62 | Cc1ccccc1NC(=O)C(=O)Nc1ccccc1C | 1.7
63 | CSc1c(N(C)C)c(=O)c1=S | -2.95
64 | O=c1cc(CO)[nH]nc1CO | -0.95
65 | CN(C)c1nc(=NCc2ccco2)ss1 | 1.75
66 | CN(C)c1ccc2c(c1)Sc1cc(N(C)C)ccc1N2C(=O)c1ccccc1 | 2.55
67 | Cn1ncc2c(Nc3ccccc3Cl)nc(Nc3ccccc3Cl)nc21 | 0.65
68 | CC1=C(c2ccccc2)C=NNCC1=O | 0.1
69 | O=C(Nc1cccc2c1N(C(=O)c1ccco1)CCC2)c1ccco1 | 0.1
70 | O=[N+]([O-])c1[nH]cnc1/C=C/c1ccccc1 | 0.4
71 | CC(O)c1nc2c(c(=O)n(C)c(=O)n2C)n1C (stereo not given) | 1.35
72 | NC(=O)c1ccccc1OCC(=O)Nc1ccc(Cl)c(Cl)c1 | 0.1
73 | CO[C@H]1C(=O)[C@]2(C)[C@@H](OC)C[C@H]3OC[C@@]3(OC(C)=O)[C@H]2[C@H](OC(=O)c2ccccc2)[C@]2(O)C[C@H](OC(=O)[C@H](O)[C@@H](NC(=O)OC(C)(C)C)c3ccccc3)C(C)=C1C2(C)C | -0.5
74 | Nc1ncnc2c1ncn2[C@@H]1C=C(CO)[C@@H](O)[C@H]1O | 0.95
75 | CCC(C)Nc1nc2c(c(=O)n(C)c(=O)n2C)n1C (stereo not given) | 1.55
76 | O=C(NC(=S)Nc1cccc2c(O)cccc12)c1cccc(Br)c1 | -0.9
77 | NC(=O)NO | -0.75
78 | CCOc1cc2c(Cl)ncnc2c(OCC)c1OCC | -0.9
79 | OC[C@@H]1CCC[C@H](n2cnc3c(=S)nc[nH]c32)O1 | 0.75
80 | CC[C@]1(O)C[C@@H]2CN(CCc3c([nH]c4ccccc34)[C@@](C(=O)OC)(c3cc4c(cc3OC)N(C)[C@H]3[C@@](O)(C(=O)OC)[C@H](OC(C)=O)[C@]5(CC)C=CCN6CC[C@]43[C@@H]65)C2)C1 | 2.05
